Structures can show the parent of a compound that is named as a salt. The list shows a part of the results. Single values are uncertain here, since repeats match poorly.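 A screen tested FDA-approved drugs combined with one-eighth-MIC colistin against a clinical mcr-1-positive, multidrug-resistant E. coli isolate, measuring OD600 at 24 h. Controls were untreated bacteria (growth) and broth alone (blank). An OD600 under 0.2 marked a combination as active.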
System: Escherichia coli 42 (mcr-1-positive clinical isolate)
Test: OD600 after 24 h growth with compound plus colistin (absorbance units (OD600)); higher = more bacterial growth (less inhibition)
Details: first compound 25 µM; colistin concentration 0.5 ug/mL; incubation time 24 h; 37 °C

Row | Structure (SMILES) | OD600
1 | CN(C)CCCC1(c2ccc(F)cc2)OCc2cc(C#N)ccc21 (centres undefined) [Citalopram hydrobromide] + CCC(C)CCCC(=O)N[C@@H](CCN)C(=O)N[C@H](C(=O)N[C@@H](CCN)C(=O)N[C@H]1CCNC(=O)[C@H]([C@@H](C)O)NC(=O)[C@H](CCN)NC(=O)[C@H](CCN)NC(=O)[C@H](CC(C)C)NC(=O)[C@@H](CC(C)C)NC(=O)[C@H](CCN)NC1=O)[C@@H](C)O [colistin] | inactive: 1.11
2 | CC(=O)OCC1=C(C(=O)O)N2C(=O)[C@@H](NC(=O)Cc3cccs3)[C@H]2SC1 [Cephalothin sodium] + CCC(C)CCCC(=O)N[C@@H](CCN)C(=O)N[C@H](C(=O)N[C@@H](CCN)C(=O)N[C@H]1CCNC(=O)[C@H]([C@@H](C)O)NC(=O)[C@H](CCN)NC(=O)[C@H](CCN)NC(=O)[C@H](CC(C)C)NC(=O)[C@@H](CC(C)C)NC(=O)[C@H](CCN)NC1=O)[C@@H](C)O [colistin] | inactive: 0.807
3 | CCc1c(C)[nH]c2c1C(=O)C(CN1CCOCC1)CC2 (centres undefined) [Molindone hydrochloride] + CCC(C)CCCC(=O)N[C@@H](CCN)C(=O)N[C@H](C(=O)N[C@@H](CCN)C(=O)N[C@H]1CCNC(=O)[C@H]([C@@H](C)O)NC(=O)[C@H](CCN)NC(=O)[C@H](CCN)NC(=O)[C@H](CC(C)C)NC(=O)[C@@H](CC(C)C)NC(=O)[C@H](CCN)NC1=O)[C@@H](C)O [colistin] | inactive: 1.02
4 | Cc1onc(-c2ccccc2Cl)c1C(=O)N[C@@H]1C(=O)N2[C@@H]1SC(C)(C)[C@@H]2C(=O)O [Cloxacillin sodium monohydrate] + CCC(C)CCCC(=O)N[C@@H](CCN)C(=O)N[C@H](C(=O)N[C@@H](CCN)C(=O)N[C@H]1CCNC(=O)[C@H]([C@@H](C)O)NC(=O)[C@H](CCN)NC(=O)[C@H](CCN)NC(=O)[C@H](CC(C)C)NC(=O)[C@@H](CC(C)C)NC(=O)[C@H](CCN)NC1=O)[C@@H](C)O [colistin] | inactive: 0.82
5 | N[C@@H]1CONC1=O [D-Cycloserine] + CCC(C)CCCC(=O)N[C@@H](CCN)C(=O)N[C@H](C(=O)N[C@@H](CCN)C(=O)N[C@H]1CCNC(=O)[C@H]([C@@H](C)O)NC(=O)[C@H](CCN)NC(=O)[C@H](CCN)NC(=O)[C@H](CC(C)C)NC(=O)[C@@H](CC(C)C)NC(=O)[C@H](CCN)NC1=O)[C@@H](C)O [colistin] | inactive: 0.976
6 | C[C@H](Cn1cnc2c(N)ncnc21)OCP(=O)(O)O [Tenofovir] + CCC(C)CCCC(=O)N[C@@H](CCN)C(=O)N[C@H](C(=O)N[C@@H](CCN)C(=O)N[C@H]1CCNC(=O)[C@H]([C@@H](C)O)NC(=O)[C@H](CCN)NC(=O)[C@H](CCN)NC(=O)[C@H](CC(C)C)NC(=O)[C@@H](CC(C)C)NC(=O)[C@H](CCN)NC1=O)[C@@H](C)O [colistin] | inactive: 0.888
7 | N=C1CCCN1Cc1[nH]c(=O)[nH]c(=O)c1Cl [Tipiracil hydrochloride] + CCC(C)CCCC(=O)N[C@@H](CCN)C(=O)N[C@H](C(=O)N[C@@H](CCN)C(=O)N[C@H]1CCNC(=O)[C@H]([C@@H](C)O)NC(=O)[C@H](CCN)NC(=O)[C@H](CCN)NC(=O)[C@H](CC(C)C)NC(=O)[C@@H](CC(C)C)NC(=O)[C@H](CCN)NC1=O)[C@@H](C)O [colistin] | inactive: 1.13
8 | O=C1Cc2cc(CCN3CCN(c4nsc5ccccc45)CC3)c(Cl)cc2N1 [Ziprasidone hydrochloride] + CCC(C)CCCC(=O)N[C@@H](CCN)C(=O)N[C@H](C(=O)N[C@@H](CCN)C(=O)N[C@H]1CCNC(=O)[C@H]([C@@H](C)O)NC(=O)[C@H](CCN)NC(=O)[C@H](CCN)NC(=O)[C@H](CC(C)C)NC(=O)[C@@H](CC(C)C)NC(=O)[C@H](CCN)NC1=O)[C@@H](C)O [colistin] | inactive: 0.672
9 | CN(C)CC/C=C1/c2ccccc2Sc2ccc(Cl)cc21 [Chlorprothixene] + CCC(C)CCCC(=O)N[C@@H](CCN)C(=O)N[C@H](C(=O)N[C@@H](CCN)C(=O)N[C@H]1CCNC(=O)[C@H]([C@@H](C)O)NC(=O)[C@H](CCN)NC(=O)[C@H](CCN)NC(=O)[C@H](CC(C)C)NC(=O)[C@@H](CC(C)C)NC(=O)[C@H](CCN)NC1=O)[C@@H](C)O [colistin] | inactive: 0.973
10 | NC(=O)Cc1cccc(C(=O)c2ccccc2)c1N [Nepafenac] + CCC(C)CCCC(=O)N[C@@H](CCN)C(=O)N[C@H](C(=O)N[C@@H](CCN)C(=O)N[C@H]1CCNC(=O)[C@H]([C@@H](C)O)NC(=O)[C@H](CCN)NC(=O)[C@H](CCN)NC(=O)[C@H](CC(C)C)NC(=O)[C@@H](CC(C)C)NC(=O)[C@H](CCN)NC1=O)[C@@H](C)O [colistin] | inactive: 1.05
11 | O=C(CCCN1CCC(O)(c2ccc(Cl)cc2)CC1)c1ccc(F)cc1 [Haloperidol] + CCC(C)CCCC(=O)N[C@@H](CCN)C(=O)N[C@H](C(=O)N[C@@H](CCN)C(=O)N[C@H]1CCNC(=O)[C@H]([C@@H](C)O)NC(=O)[C@H](CCN)NC(=O)[C@H](CCN)NC(=O)[C@H](CC(C)C)NC(=O)[C@@H](CC(C)C)NC(=O)[C@H](CCN)NC1=O)[C@@H](C)O [colistin] | inactive: 0.871
12 | CNCCC=C1c2ccccc2CCc2ccccc21 [Nortriptyline hydrochloride] + CCC(C)CCCC(=O)N[C@@H](CCN)C(=O)N[C@H](C(=O)N[C@@H](CCN)C(=O)N[C@H]1CCNC(=O)[C@H]([C@@H](C)O)NC(=O)[C@H](CCN)NC(=O)[C@H](CCN)NC(=O)[C@H](CC(C)C)NC(=O)[C@@H](CC(C)C)NC(=O)[C@H](CCN)NC1=O)[C@@H](C)O [colistin] | inactive: 0.96
13 | CCCCS(=O)(=O)N[C@@H](Cc1ccc(OCCCCC2CCNCC2)cc1)C(=O)O [Tirofiban hydrochloride monohydrate] + CCC(C)CCCC(=O)N[C@@H](CCN)C(=O)N[C@H](C(=O)N[C@@H](CCN)C(=O)N[C@H]1CCNC(=O)[C@H]([C@@H](C)O)NC(=O)[C@H](CCN)NC(=O)[C@H](CCN)NC(=O)[C@H](CC(C)C)NC(=O)[C@@H](CC(C)C)NC(=O)[C@H](CCN)NC1=O)[C@@H](C)O [colistin] | inactive: 1.06
14 | Clc1cccc(Cl)c1NC1=NCCN1 [Clonidine hydrochloride] + CCC(C)CCCC(=O)N[C@@H](CCN)C(=O)N[C@H](C(=O)N[C@@H](CCN)C(=O)N[C@H]1CCNC(=O)[C@H]([C@@H](C)O)NC(=O)[C@H](CCN)NC(=O)[C@H](CCN)NC(=O)[C@H](CC(C)C)NC(=O)[C@@H](CC(C)C)NC(=O)[C@H](CCN)NC1=O)[C@@H](C)O [colistin] | inactive: 1.03
15 | CC(C(=O)O)c1ccc2c(c1)[nH]c1ccc(Cl)cc12 (centres undefined) [Carprofen] + CCC(C)CCCC(=O)N[C@@H](CCN)C(=O)N[C@H](C(=O)N[C@@H](CCN)C(=O)N[C@H]1CCNC(=O)[C@H]([C@@H](C)O)NC(=O)[C@H](CCN)NC(=O)[C@H](CCN)NC(=O)[C@H](CC(C)C)NC(=O)[C@@H](CC(C)C)NC(=O)[C@H](CCN)NC1=O)[C@@H](C)O [colistin] | inactive: 0.755
16 | CC[C@H]1OC(=O)[C@H](C)[C@@H](O[C@H]2C[C@@](C)(OC)[C@@H](O)[C@H](C)O2)[C@H](C)[C@@H](O[C@@H]2O[C@H](C)C[C@H](N(C)C)[C@H]2O)[C@](C)(O)C[C@@H](C)C(=O)[C@H](C)[C@@H](O)[C@]1(C)O [Erythromycin] + CCC(C)CCCC(=O)N[C@@H](CCN)C(=O)N[C@H](C(=O)N[C@@H](CCN)C(=O)N[C@H]1CCNC(=O)[C@H]([C@@H](C)O)NC(=O)[C@H](CCN)NC(=O)[C@H](CCN)NC(=O)[C@H](CC(C)C)NC(=O)[C@@H](CC(C)C)NC(=O)[C@H](CCN)NC1=O)[C@@H](C)O [colistin] | active: 0.038
17 | CC(C)(C)NCC(O)COc1cccc2c1CCC(=O)N2 (centres undefined) [Carteolol hydrochloride] + CCC(C)CCCC(=O)N[C@@H](CCN)C(=O)N[C@H](C(=O)N[C@@H](CCN)C(=O)N[C@H]1CCNC(=O)[C@H]([C@@H](C)O)NC(=O)[C@H](CCN)NC(=O)[C@H](CCN)NC(=O)[C@H](CC(C)C)NC(=O)[C@@H](CC(C)C)NC(=O)[C@H](CCN)NC1=O)[C@@H](C)O [colistin] | inactive: 1.15
18 | CCCCCCCCCC(=O)N[C@@H](Cc1c[nH]c2ccccc12)C(=O)N[C@H](CC(N)=O)C(=O)N[C@@H](CC(=O)O)C(=O)N[C@@H]1C(=O)NCC(=O)N[C@@H](CCCN)C(=O)N[C@@H](CC(=O)O)C(=O)N[C@H](C)C(=O)N[C@@H](CC(=O)O)C(=O)NCC(=O)N[C@H](CO)C(=O)N[C@@H]([C@H](C)CC(=O)O)C(=O)N[C@@H](CC(=O)c2ccccc2N)C(=O)O[C@@H]1C [Daptomycin] + CCC(C)CCCC(=O)N[C@@H](CCN)C(=O)N[C@H](C(=O)N[C@@H](CCN)C(=O)N[C@H]1CCNC(=O)[C@H]([C@@H](C)O)NC(=O)[C@H](CCN)NC(=O)[C@H](CCN)NC(=O)[C@H](CC(C)C)NC(=O)[C@@H](CC(C)C)NC(=O)[C@H](CCN)NC1=O)[C@@H](C)O [colistin] | inactive: 0.891
19 | CO[C@@H]1[C@@H](OC(N)=O)[C@@H](O)[C@H](Oc2ccc3c(O)c(NC(=O)c4ccc(O)c(CC=C(C)C)c4)c(=O)oc3c2C)OC1(C)C [Novobiocin Sodium] + CCC(C)CCCC(=O)N[C@@H](CCN)C(=O)N[C@H](C(=O)N[C@@H](CCN)C(=O)N[C@H]1CCNC(=O)[C@H]([C@@H](C)O)NC(=O)[C@H](CCN)NC(=O)[C@H](CCN)NC(=O)[C@H](CC(C)C)NC(=O)[C@@H](CC(C)C)NC(=O)[C@H](CCN)NC1=O)[C@@H](C)O [colistin] | active: 0.038

Entries 8–9 from above:
Row | Structure (SMILES) | OD600
8 | O=C1Cc2cc(CCN3CCN(c4nsc5ccccc45)CC3)c(Cl)cc2N1 [Ziprasidone hydrochloride] + CCC(C)CCCC(=O)N[C@@H](CCN)C(=O)N[C@H](C(=O)N[C@@H](CCN)C(=O)N[C@H]1CCNC(=O)[C@H]([C@@H](C)O)NC(=O)[C@H](CCN)NC(=O)[C@H](CCN)NC(=O)[C@H](CC(C)C)NC(=O)[C@@H](CC(C)C)NC(=O)[C@H](CCN)NC1=O)[C@@H](C)O [colistin] | inactive: 0.672
9 | CN(C)CC/C=C1/c2ccccc2Sc2ccc(Cl)cc21 [Chlorprothixene] + CCC(C)CCCC(=O)N[C@@H](CCN)C(=O)N[C@H](C(=O)N[C@@H](CCN)C(=O)N[C@H]1CCNC(=O)[C@H]([C@@H](C)O)NC(=O)[C@H](CCN)NC(=O)[C@H](CCN)NC(=O)[C@H](CC(C)C)NC(=O)[C@@H](CC(C)C)NC(=O)[C@H](CCN)NC1=O)[C@@H](C)O [colistin] | inactive: 0.973

Source: the supplement of paper PMC11546906
